Here are results for one sequence from paper PMC8794255, “Small molecule inhibitor of Igf2bp1 represses Kras and a pro-oncogenic phenotype in cancer cells” (RNA Biology, 2021).

The exact form of at least one protein or probe is not confirmed. For some assays here: At least one verdict rests on a figure or table, not on a statement of the authors.

Data set [1] concerns La. The data set can be described thus: FP. As to conditions: 7773 IC50 > 100 uM; FP: 10 mM Tris pH 8.0, 75 mM KCl, 3 mM MgCl2, 0.5 mM EDTA, 1 mM DTT, tRNA, heparin, room temperature; recombinant protein; label: 5' 6-FAM.
Data set [2] deals with La. The data set is described as follows: EMSA. To be noted: unaffected by 200 uM 7773 or DMSO; recombinant protein; label: 5' 6-FAM.

With “CCCGUUGCUUUUCCUCUGGGAAGGAUGGCGCACGCUGGG [Bcl2 RNA]”, the binding result in data set [1] and in data set [2] was “binds” each time.
